{"source": "PubChem BioAssay AID504774 (Drosophila RNAi Screening Center, 2011)", "test": "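Fly genes whose loss alters survival after alkylation damage to DNA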 (primary screen)", "cells": "Drosophila Kc167 cells", "reagents": "long dsRNA against Drosophila genes, about 0.25 µg dsRNA per well", "timing": "about 6 days: 3 days knock-down, then 3 days with or without MMS", "conditions": "methyl methanesulphonate 0.004% (w/v) for 3 days after knock-down", "detection": "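ATP-dependent luminescence as a measure of live cells in MMS-exposed wells, quantile normalised within each plate, with replicate values also given as a mean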", "reading the numbers": "mean viability with MMS: higher = more surviving cells after MMS", "note": "The deposit covers about 23,000 reagents; below is a random part of those with a known target gene and a result. 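Values are quantile-normalised luminescence on an arbitrary scale; higher means more cells surviving MMS.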 Reagents against one gene are numbered here. A plus sign joins genes that one reagent is predicted to hit. Not all columns of the deposit are shown."}
{"gene": "Lamtor2 + CG30120", "dsRNA no.": 1, "mean viability with MMS": 3.47e6}
{"gene": "Lamtor2 + CG30120", "dsRNA no.": 2, "mean viability with MMS": 3.54e6}
{"gene": "CG8560", "dsRNA no.": 1, "mean viability with MMS": 3.61e6}
{"gene": "plu", "dsRNA no.": 1, "mean viability with MMS": 3.47e6}
{"gene": "HDAC4", "dsRNA no.": 1, "mean viability with MMS": 3.68e6}
{"gene": "upd2", "dsRNA no.": 1, "mean viability with MMS": 3.41e6}
{"gene": "dmrt11E", "dsRNA no.": 1, "mean viability with MMS": 3.56e6}
{"gene": "Galk", "dsRNA no.": 1, "mean viability with MMS": 3.59e6}
{"gene": "CCT2", "dsRNA no.": 1, "mean viability with MMS": 3.35e6}
{"gene": "pigeon", "dsRNA no.": 1, "mean viability with MMS": 3.60e6}
{"gene": "CG12177", "dsRNA no.": 1, "mean viability with MMS": 3.53e6}
{"gene": "CG12177", "dsRNA no.": 2, "mean viability with MMS": 3.69e6}
{"gene": "CG10184", "dsRNA no.": 1, "mean viability with MMS": 3.51e6}
{"gene": "eIF3d2", "dsRNA no.": 1, "mean viability with MMS": 3.50e6}
{"gene": "CG6282", "dsRNA no.": 1, "mean viability with MMS": 3.59e6}
{"gene": "CG16753", "dsRNA no.": 1, "mean viability with MMS": 3.50e6}
{"gene": "Iswi", "dsRNA no.": 1, "mean viability with MMS": 2.99e6}
{"gene": "Nse1", "dsRNA no.": 1, "mean viability with MMS": 3.38e6}
{"gene": "CG14618", "dsRNA no.": 1, "mean viability with MMS": 3.55e6}
{"gene": "Cyp305a1", "dsRNA no.": 1, "mean viability with MMS": 3.79e6}
{"gene": "CG5921", "dsRNA no.": 1, "mean viability with MMS": 3.60e6}
{"gene": "CG5921", "dsRNA no.": 2, "mean viability with MMS": 3.52e6}
{"gene": "wat", "dsRNA no.": 1, "mean viability with MMS": 3.48e6}
{"gene": "Synd", "dsRNA no.": 1, "mean viability with MMS": 3.56e6}
{"gene": "Ptpmeg", "dsRNA no.": 1, "mean viability with MMS": 3.56e6}
{"gene": "CG32107", "dsRNA no.": 1, "mean viability with MMS": 3.58e6}
{"gene": "CG10232", "dsRNA no.": 1, "mean viability with MMS": 3.63e6}
{"gene": "snama", "dsRNA no.": 1, "mean viability with MMS": 3.44e6}
{"gene": "CG16800", "dsRNA no.": 1, "mean viability with MMS": 3.66e6}
{"gene": "AdipoR", "dsRNA no.": 1, "mean viability with MMS": 3.64e6}
{"gene": "CG11269", "dsRNA no.": 1, "mean viability with MMS": 3.44e6}
{"gene": "janA", "dsRNA no.": 1, "mean viability with MMS": 3.35e6}
{"gene": "kirre", "dsRNA no.": 1, "mean viability with MMS": 3.58e6}
{"gene": "CG11438", "dsRNA no.": 1, "mean viability with MMS": 3.45e6}
{"gene": "Tom7", "dsRNA no.": 1, "mean viability with MMS": 3.73e6}
{"gene": "Tom7", "dsRNA no.": 2, "mean viability with MMS": 3.73e6}

Ordered by “mean viability with MMS” (descending): 6 of the entries above.
{"gene": "CG16800", "dsRNA no.": 1, "mean viability with MMS": 3.66e6}
{"gene": "AdipoR", "dsRNA no.": 1, "mean viability with MMS": 3.64e6}
{"gene": "CG10232", "dsRNA no.": 1, "mean viability with MMS": 3.63e6}
{"gene": "snama", "dsRNA no.": 1, "mean viability with MMS": 3.44e6}
{"gene": "CG11269", "dsRNA no.": 1, "mean viability with MMS": 3.44e6}
{"gene": "janA", "dsRNA no.": 1, "mean viability with MMS": 3.35e6}
